Experiment in all cases: log2 fold change, soluble protein after heating vs DMSO (PISA); higher = thermal stabilisation; K562 lysate, 10 uM; active = over 0.2 and 3.5 SD of the protein, either way, in both replicates (recomputed)
Compound in assay [1]: NCC(=O)Nc1ccc(-n2nc(C(F)(F)F)cc2-c2ccc3c(ccc4ccccc43)c2)cc1
The method in brief: (§1)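 A 30 min treatment with 10 μM compound was applied to crude K562 extract at 1 mg/mL protein in PBS pH 7.4 with 1 mM MgCl2. Heating for 3 min spanned 48°C-58°C, after which aliquots were pooled, adjusted to 0.5% NP-40 at 4°C and spun at 21,000xg for 90 min. TMTpro 16plex LC-MS/MS of the supernatant, with channel sums equalised, gave values recorded as log-two fold change in thermal stability against solvent controls, from duplicates.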

The chains behind the UniProt entries cited, without tags or fusion partners. Where a name states a change or a piece, a line headed by the entry shows the natural chain unless it says otherwise.
UniProt P78346: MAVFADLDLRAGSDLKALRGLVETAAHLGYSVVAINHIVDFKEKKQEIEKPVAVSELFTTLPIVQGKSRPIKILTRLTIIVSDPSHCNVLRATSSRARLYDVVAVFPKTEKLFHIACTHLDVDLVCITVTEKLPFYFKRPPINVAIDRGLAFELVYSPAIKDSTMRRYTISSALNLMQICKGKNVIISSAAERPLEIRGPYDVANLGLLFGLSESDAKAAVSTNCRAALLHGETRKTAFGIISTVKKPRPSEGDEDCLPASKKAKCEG
UniProt Q96EU6: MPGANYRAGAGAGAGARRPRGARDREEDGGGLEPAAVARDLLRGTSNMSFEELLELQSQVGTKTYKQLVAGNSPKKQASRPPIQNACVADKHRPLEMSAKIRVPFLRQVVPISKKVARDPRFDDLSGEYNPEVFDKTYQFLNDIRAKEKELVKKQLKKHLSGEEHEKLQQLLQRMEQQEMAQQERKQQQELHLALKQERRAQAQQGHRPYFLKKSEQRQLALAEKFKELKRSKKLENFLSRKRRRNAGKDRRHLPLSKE
UniProt Q9NYV6: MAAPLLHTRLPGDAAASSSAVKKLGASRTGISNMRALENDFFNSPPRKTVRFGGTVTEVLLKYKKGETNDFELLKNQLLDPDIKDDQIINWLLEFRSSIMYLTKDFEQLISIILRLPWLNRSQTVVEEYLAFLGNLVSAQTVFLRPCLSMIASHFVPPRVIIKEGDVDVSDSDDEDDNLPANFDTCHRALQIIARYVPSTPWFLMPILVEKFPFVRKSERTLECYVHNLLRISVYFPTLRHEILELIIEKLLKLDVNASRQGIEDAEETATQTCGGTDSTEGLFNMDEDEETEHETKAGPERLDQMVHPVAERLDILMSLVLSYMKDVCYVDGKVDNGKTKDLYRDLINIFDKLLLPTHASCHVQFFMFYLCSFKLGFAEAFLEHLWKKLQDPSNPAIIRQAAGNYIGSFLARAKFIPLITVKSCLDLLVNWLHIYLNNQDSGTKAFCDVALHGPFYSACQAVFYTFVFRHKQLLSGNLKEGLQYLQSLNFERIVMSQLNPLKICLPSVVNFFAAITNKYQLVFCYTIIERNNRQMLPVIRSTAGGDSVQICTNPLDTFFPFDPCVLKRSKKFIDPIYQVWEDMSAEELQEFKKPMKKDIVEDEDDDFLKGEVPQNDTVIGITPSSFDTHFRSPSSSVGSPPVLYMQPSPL
UniProt Q86SG5: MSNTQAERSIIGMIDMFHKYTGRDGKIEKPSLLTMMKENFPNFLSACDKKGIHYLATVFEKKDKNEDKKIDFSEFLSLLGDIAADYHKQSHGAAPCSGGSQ
UniProt Q8WXA3: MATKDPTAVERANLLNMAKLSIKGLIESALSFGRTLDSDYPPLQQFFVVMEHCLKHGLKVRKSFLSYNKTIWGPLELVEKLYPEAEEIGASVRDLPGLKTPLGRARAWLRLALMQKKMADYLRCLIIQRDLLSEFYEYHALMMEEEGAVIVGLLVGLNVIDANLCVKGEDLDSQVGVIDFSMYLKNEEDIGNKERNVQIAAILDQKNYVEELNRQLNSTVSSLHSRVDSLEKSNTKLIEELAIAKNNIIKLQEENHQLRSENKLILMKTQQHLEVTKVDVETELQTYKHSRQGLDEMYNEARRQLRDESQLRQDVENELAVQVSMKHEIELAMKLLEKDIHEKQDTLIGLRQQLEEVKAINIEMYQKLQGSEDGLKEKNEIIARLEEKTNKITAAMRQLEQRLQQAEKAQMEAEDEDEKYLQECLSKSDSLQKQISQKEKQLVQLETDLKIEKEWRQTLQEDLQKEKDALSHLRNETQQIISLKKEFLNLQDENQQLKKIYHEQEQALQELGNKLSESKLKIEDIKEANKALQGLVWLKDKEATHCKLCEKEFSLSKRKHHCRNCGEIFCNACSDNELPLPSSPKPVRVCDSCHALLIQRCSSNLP
UniProt Q9UBS0: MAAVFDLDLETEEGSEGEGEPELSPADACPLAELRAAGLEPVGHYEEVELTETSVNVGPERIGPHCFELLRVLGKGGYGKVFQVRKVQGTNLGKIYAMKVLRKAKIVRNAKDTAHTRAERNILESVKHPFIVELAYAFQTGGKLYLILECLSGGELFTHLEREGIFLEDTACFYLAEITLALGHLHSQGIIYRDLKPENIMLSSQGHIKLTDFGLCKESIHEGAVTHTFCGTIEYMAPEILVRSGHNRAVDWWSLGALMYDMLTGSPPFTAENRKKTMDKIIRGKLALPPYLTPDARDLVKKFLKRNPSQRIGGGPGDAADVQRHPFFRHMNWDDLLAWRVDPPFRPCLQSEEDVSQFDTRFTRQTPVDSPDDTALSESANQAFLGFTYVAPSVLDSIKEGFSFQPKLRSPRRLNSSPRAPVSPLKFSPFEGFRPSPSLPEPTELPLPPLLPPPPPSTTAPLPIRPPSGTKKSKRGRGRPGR
UniProt Q86WX3: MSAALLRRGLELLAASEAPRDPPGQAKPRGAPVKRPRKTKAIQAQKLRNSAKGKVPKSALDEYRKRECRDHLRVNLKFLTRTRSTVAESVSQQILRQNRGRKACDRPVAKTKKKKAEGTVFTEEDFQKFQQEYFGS
UniProt Q96S38: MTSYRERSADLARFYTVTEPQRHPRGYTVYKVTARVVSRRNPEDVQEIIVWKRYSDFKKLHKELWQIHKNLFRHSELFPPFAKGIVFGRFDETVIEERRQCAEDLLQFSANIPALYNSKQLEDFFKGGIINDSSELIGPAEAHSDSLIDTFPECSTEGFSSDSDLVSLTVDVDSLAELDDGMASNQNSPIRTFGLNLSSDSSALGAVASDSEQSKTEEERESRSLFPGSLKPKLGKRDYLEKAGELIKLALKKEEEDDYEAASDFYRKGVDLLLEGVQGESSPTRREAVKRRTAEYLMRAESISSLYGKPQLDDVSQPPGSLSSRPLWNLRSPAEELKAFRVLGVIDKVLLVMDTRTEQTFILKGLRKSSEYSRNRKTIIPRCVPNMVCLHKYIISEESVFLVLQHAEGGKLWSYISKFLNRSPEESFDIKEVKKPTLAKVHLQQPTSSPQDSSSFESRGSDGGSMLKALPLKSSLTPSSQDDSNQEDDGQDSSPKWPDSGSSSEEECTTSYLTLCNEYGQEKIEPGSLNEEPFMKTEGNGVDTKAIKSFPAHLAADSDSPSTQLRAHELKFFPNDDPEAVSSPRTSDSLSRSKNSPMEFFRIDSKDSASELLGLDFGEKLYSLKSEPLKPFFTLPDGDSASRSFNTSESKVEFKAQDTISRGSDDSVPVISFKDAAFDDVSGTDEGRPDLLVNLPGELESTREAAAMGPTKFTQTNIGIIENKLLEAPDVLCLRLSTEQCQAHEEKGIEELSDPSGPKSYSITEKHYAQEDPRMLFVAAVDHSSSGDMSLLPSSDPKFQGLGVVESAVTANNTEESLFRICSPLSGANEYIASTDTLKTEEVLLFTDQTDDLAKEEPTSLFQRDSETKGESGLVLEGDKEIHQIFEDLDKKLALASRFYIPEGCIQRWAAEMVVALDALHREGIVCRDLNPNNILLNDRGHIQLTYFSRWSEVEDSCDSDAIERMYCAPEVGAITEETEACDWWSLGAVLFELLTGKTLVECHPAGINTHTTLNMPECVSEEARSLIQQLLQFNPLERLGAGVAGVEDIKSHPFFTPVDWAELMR
UniProt Q9UJJ7: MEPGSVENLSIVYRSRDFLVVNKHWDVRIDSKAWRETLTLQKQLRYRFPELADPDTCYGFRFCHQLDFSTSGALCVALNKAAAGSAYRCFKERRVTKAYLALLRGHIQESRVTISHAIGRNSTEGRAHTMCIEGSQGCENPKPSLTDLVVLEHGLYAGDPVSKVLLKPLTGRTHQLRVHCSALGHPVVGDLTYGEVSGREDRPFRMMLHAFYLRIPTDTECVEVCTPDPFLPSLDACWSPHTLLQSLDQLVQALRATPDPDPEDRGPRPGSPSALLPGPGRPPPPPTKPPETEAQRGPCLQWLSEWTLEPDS
UniProt Q96FQ6: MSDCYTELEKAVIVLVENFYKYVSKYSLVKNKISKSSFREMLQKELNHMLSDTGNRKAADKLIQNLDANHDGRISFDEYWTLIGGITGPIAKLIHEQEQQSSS
UniProt Q9HCY8: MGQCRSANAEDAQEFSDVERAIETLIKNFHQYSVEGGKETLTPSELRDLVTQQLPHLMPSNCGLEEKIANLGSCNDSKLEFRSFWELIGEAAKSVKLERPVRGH
UniProt Q86VV8: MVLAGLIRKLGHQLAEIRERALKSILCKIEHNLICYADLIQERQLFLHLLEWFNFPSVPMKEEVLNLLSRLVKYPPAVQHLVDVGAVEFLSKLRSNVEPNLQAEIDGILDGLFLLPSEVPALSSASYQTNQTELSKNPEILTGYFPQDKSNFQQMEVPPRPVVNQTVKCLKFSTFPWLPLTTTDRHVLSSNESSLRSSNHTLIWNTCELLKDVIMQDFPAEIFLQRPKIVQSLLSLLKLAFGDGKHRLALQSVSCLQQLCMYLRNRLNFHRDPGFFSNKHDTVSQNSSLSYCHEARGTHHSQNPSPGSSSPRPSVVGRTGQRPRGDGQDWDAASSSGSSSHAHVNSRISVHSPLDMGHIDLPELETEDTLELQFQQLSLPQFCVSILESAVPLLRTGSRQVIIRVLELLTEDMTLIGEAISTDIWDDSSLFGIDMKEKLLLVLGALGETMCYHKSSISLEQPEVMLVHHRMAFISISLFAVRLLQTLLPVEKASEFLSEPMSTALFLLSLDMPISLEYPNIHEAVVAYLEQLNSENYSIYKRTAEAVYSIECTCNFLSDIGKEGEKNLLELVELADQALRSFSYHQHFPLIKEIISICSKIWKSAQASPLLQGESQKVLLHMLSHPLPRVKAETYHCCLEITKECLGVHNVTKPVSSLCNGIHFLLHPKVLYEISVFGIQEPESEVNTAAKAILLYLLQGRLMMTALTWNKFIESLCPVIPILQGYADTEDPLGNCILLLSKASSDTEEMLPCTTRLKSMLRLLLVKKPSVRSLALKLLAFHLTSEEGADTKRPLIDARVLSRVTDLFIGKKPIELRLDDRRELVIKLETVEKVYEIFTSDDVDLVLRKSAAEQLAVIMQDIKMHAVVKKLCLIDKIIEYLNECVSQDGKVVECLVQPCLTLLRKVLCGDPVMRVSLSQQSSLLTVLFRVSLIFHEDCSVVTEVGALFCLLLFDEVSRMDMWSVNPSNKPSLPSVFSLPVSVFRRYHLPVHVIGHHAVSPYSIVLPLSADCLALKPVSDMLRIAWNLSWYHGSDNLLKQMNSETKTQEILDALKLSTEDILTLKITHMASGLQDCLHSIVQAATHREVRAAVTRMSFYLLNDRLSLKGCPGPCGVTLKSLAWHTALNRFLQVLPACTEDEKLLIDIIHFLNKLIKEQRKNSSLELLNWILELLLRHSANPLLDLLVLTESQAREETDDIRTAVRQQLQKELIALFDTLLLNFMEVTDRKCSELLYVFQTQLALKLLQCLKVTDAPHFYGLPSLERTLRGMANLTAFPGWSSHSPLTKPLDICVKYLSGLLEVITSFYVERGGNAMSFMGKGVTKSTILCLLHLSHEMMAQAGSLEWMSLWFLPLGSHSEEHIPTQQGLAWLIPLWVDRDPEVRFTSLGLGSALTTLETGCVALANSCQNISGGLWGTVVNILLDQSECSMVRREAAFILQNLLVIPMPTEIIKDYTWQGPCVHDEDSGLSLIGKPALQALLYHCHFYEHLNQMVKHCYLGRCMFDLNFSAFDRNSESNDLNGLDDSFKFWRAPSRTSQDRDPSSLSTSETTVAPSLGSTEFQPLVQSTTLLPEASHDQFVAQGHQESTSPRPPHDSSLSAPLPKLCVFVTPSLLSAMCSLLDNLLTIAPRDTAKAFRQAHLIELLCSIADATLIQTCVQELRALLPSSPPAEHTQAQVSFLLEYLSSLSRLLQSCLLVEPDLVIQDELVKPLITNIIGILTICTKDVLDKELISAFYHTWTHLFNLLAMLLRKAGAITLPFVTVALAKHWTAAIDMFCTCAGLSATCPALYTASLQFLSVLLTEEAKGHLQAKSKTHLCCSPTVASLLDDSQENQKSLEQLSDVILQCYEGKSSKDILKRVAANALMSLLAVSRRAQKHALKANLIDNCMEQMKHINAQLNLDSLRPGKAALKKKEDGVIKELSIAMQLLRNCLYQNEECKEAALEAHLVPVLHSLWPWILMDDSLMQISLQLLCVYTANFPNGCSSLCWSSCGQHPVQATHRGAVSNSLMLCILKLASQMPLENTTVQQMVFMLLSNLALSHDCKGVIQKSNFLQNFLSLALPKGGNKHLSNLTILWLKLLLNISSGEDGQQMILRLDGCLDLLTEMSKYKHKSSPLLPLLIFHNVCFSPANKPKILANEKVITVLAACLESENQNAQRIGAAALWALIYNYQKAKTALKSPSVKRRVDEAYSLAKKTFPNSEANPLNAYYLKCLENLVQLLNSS
UniProt Q8N5L8: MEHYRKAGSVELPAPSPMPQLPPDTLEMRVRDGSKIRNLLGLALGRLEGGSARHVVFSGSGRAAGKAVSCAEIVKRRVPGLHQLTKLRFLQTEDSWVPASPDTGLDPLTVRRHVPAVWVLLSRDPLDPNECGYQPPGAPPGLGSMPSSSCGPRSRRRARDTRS
UniProt Q9BWD3: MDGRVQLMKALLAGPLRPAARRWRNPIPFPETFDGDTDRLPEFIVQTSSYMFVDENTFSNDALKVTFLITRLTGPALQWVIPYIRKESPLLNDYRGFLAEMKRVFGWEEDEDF

Compound in a further assay: O=C(CCCCCCC(=O)Nc1ccccc1)NO [vorinostat]
Summed up:
as §1

Compound in the next assay: O=C(O)c1ccc2c(c1)nc(Nc1cccc(Cl)c1)c1ccncc12 [silmitasertib]
Summed up:
as §1

Compound in assay [2]: O=C1NC(=O)C(c2cnc3ccccn23)=C1c1cn2c3c(cc(F)cc13)CN(C(=O)N1CCCCC1)CC2
Summed up:
as §1

Compound in another assay: c1cn2cc(-c3ccc4cn[nH]c4c3)nc(Nc3ccc(N4CCOCC4)cc3)c2n1 [entospletinib]
Summed up: as §1

Some of the results follow.

For RPP30 isoform 2 (UniProt P78346), the log2 fold change in assay [1] is inactive: -0.007; with vorinostat, inactive: 0.029; with silmitasertib, inactive: 0.018; in assay [2] it was inactive: 0.038; with entospletinib, inactive: -0.001.

Turning to RRP36 (UniProt Q96EU6), the log2 fold change in assay [1] is inactive: -0.062; in the assay with vorinostat, inactive: 0.081; with silmitasertib it was inactive: 0.156; in assay [2] it was inactive: -0.004; with entospletinib, inactive: 0.08.

For RPL5 (UniProt P46777), the log2 fold change was inactive: -0.014 in assay [1]; inactive: 0.1 with vorinostat; inactive: -0.001 with silmitasertib; inactive: 0 in assay [2]; inactive: -0.01 with entospletinib.

For RSL24D1 (UniProt Q9UHA3), the log2 fold change with vorinostat is inactive: 0.011; with silmitasertib, inactive: -0.023; in assay [2], inactive: -0.008; in the assay with entospletinib, inactive: -0.029.

Turning to RRN3 (UniProt Q9NYV6), the results for the log2 fold change (in assay [1]; in assay [2]; with entospletinib) were inactive: 0.146, inactive: -0.016 and inactive: 0.033, respectively.

Take S100A7A (UniProt Q86SG5): the log2 fold change with vorinostat is inactive: 0.461; with silmitasertib it was inactive: -0.077; in assay [2], inactive: 0.377.

Turning to RXRA (UniProt P19793), the log2 fold change with vorinostat was inactive: -0.154; with silmitasertib, inactive: 0.07; in assay [2], inactive: -0.08.

As to RSBN1L (UniProt Q6PCB5), the log2 fold change in assay [1] was inactive: -0.003; with vorinostat, inactive: 0.069; with silmitasertib, inactive: 0.004; in assay [2] it was inactive: 0.015; with entospletinib it was inactive: -0.007.

With RPL6 (UniProt Q02878), the log2 fold change is inactive: -0.015 in assay [1]; inactive: 0.098 in the assay with vorinostat; inactive: -0.012 with silmitasertib; inactive: 0.01 in assay [2]; inactive: 0.026 with entospletinib.

With RWDD1 (UniProt Q9H446), the log2 fold change was inactive: -0.025 in assay [1]; inactive: 0.107 with vorinostat; inactive: -0.016 in the assay with silmitasertib; inactive: 0.043 in assay [2]; inactive: -0.006 with entospletinib.

In the case of RSPRY1 (UniProt Q96DX4), the log2 fold change in assay [1] was inactive: 0.038; with vorinostat, inactive: 0.014; with silmitasertib, inactive: -0.047; in assay [2] it was inactive: 0.014; with entospletinib, inactive: 0.025.

For RPL7A (UniProt P62424), the log2 fold change in assay [1] was inactive: 0.018; in the assay with vorinostat, inactive: 0.084; with silmitasertib, inactive: 0.002; in assay [2], inactive: 0.049; with entospletinib, inactive: -0.003.

As for RYR1 (UniProt P21817), the log2 fold change in the assay with vorinostat is inactive: 0.066; with silmitasertib, inactive: -0.017; in assay [2], inactive: -0.069; with entospletinib, inactive: 0.101.

As to RPP30 (UniProt Q5VU11), the log2 fold change in assay [1] is inactive: 0.122; with entospletinib, inactive: 0.053.

Take RUFY2 isoform 1 (UniProt Q8WXA3): the log2 fold change in assay [1] is inactive: -0.009; in assay [2] it was inactive: -0.129; with entospletinib, inactive: -0.014.

As for RPS6KB2 (UniProt Q9UBS0), the log2 fold change in the assay with vorinostat was inactive: -0.287; with silmitasertib it was inactive: 0.04; in assay [2], inactive: 0.002; with entospletinib it was inactive: -0.025.

For RPS19BP1 (UniProt Q86WX3), the log2 fold change was inactive: -0.026 in assay [2] and inactive: -0.311 with entospletinib.

For the target RPS6KC1 (UniProt Q96S38), the log2 fold change in assay [1] was inactive: 0.008; with vorinostat it was inactive: -0.132; with silmitasertib, inactive: 0.074; in assay [2], inactive: -0.049; with entospletinib, inactive: -0.014.

As for RPUSD1 (UniProt Q9UJJ7), the log2 fold change in assay [1] was inactive: 0.145; in the assay with entospletinib, inactive: -0.008.

On to S100A16 (UniProt Q96FQ6), for which the log2 fold change in assay [2] is inactive: 0.085.

With RPS9 (UniProt P46781), the log2 fold change in assay [1] is inactive: -0.03; in the assay with vorinostat it was inactive: 0.125; in the assay with silmitasertib it was inactive: 0.042; in assay [2], inactive: 0.002; with entospletinib, inactive: 0.004.

With S100A14 (UniProt Q9HCY8), the log2 fold change in the assay with vorinostat was inactive: -0.199; with silmitasertib it was inactive: -0.101; in the assay with entospletinib, inactive: -0.14.

Turning to RPS15A (UniProt P62244), the log2 fold change in assay [1] is inactive: -0.027; with vorinostat it was inactive: 0.015; with silmitasertib, inactive: 0.034; in assay [2], inactive: -0.028; with entospletinib it was inactive: -0.014.

Regarding RPS3 (UniProt E9PJN9), the values for the log2 fold change (in assay [1]; in assay [2]; with entospletinib) were inactive: 0.129, inactive: -0.025 and inactive: 0.053, respectively.

Regarding RTTN (UniProt Q86VV8), the log2 fold change is inactive: -0.14 in assay [1], active: -0.607 with vorinostat, inactive: 0.138 with silmitasertib and inactive: 0.053 in the assay with entospletinib.

As for RPP25L (UniProt Q8N5L8), the log2 fold change in assay [1] is inactive: 0.037; with vorinostat it was inactive: 0.13; with silmitasertib, inactive: -0.131; in assay [2], inactive: 0.003; with entospletinib, inactive: -0.08.

RTL8A (UniProt Q9BWD3): the log2 fold change was inactive: 0.008 in assay [1], inactive: 0.022 in assay [2] and inactive: -0.14 in the assay with entospletinib.
